Measured values reported in publication PMC11061149, “Protein mimetic 2D FAST rescues alpha synuclein aggregation mediated early and post disease Parkinson’s phenotypes” (Nature Communications, 2024).
Where “and” joins values, the source holds several entries; their conditions need not be identical. Equal entries are not always repeated.

Assay: ThT fluorescence quenching control

SMILES: Cc1ccc(NC(=O)c2ccc(NC(=O)c3ccc([N+](=O)[O-])c(NCCc4c[nH]c5ccccc45)n3)c(NCC3CCCCC3)n2)c(OCC(=O)O)n1 [NS132]
- quenching of the ThT fluorescence signal by the ligand, in words (ThT dye 50 μM, NS132 100 μM, 1×PBS pH 6.5): did not observe any significant quenching
- ThT fluorescence relative to Control (ThT), Average (sheet S10, average of 3 trials, Control (ThT) = 1): 0.927
- ThT fluorescence relative to Control (ThT), Trial 1-3 (sheet S10, individual trials, Control (ThT) = 1): 0.954 and 0.862 and 0.965
